# These are yes or no findings as the source states them, for the method shown. In cells and extracts the contact can be indirect. These calls come from enrichment with a bait or labelling near it, and not all partners need be listed.
# Protein sequences, listed by entry. Tags and fused reporters are not part of them.
# UniProt Q9Z204: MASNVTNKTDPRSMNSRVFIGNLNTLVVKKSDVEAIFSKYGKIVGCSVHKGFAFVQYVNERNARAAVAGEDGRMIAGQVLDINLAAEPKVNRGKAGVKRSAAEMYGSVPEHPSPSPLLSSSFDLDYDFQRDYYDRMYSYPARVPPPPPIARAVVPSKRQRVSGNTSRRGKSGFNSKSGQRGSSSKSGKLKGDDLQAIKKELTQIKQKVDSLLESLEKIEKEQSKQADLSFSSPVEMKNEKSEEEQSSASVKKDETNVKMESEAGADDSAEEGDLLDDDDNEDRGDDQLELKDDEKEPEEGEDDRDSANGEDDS
# UniProt Q9R0U0: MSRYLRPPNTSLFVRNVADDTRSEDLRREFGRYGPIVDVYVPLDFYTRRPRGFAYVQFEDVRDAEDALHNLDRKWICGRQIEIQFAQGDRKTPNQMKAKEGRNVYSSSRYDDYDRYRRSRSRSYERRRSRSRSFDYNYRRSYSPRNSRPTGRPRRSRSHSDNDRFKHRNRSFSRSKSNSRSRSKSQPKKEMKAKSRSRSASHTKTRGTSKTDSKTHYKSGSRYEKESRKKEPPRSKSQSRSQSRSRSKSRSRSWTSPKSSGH
# UniProt Q6P4T2: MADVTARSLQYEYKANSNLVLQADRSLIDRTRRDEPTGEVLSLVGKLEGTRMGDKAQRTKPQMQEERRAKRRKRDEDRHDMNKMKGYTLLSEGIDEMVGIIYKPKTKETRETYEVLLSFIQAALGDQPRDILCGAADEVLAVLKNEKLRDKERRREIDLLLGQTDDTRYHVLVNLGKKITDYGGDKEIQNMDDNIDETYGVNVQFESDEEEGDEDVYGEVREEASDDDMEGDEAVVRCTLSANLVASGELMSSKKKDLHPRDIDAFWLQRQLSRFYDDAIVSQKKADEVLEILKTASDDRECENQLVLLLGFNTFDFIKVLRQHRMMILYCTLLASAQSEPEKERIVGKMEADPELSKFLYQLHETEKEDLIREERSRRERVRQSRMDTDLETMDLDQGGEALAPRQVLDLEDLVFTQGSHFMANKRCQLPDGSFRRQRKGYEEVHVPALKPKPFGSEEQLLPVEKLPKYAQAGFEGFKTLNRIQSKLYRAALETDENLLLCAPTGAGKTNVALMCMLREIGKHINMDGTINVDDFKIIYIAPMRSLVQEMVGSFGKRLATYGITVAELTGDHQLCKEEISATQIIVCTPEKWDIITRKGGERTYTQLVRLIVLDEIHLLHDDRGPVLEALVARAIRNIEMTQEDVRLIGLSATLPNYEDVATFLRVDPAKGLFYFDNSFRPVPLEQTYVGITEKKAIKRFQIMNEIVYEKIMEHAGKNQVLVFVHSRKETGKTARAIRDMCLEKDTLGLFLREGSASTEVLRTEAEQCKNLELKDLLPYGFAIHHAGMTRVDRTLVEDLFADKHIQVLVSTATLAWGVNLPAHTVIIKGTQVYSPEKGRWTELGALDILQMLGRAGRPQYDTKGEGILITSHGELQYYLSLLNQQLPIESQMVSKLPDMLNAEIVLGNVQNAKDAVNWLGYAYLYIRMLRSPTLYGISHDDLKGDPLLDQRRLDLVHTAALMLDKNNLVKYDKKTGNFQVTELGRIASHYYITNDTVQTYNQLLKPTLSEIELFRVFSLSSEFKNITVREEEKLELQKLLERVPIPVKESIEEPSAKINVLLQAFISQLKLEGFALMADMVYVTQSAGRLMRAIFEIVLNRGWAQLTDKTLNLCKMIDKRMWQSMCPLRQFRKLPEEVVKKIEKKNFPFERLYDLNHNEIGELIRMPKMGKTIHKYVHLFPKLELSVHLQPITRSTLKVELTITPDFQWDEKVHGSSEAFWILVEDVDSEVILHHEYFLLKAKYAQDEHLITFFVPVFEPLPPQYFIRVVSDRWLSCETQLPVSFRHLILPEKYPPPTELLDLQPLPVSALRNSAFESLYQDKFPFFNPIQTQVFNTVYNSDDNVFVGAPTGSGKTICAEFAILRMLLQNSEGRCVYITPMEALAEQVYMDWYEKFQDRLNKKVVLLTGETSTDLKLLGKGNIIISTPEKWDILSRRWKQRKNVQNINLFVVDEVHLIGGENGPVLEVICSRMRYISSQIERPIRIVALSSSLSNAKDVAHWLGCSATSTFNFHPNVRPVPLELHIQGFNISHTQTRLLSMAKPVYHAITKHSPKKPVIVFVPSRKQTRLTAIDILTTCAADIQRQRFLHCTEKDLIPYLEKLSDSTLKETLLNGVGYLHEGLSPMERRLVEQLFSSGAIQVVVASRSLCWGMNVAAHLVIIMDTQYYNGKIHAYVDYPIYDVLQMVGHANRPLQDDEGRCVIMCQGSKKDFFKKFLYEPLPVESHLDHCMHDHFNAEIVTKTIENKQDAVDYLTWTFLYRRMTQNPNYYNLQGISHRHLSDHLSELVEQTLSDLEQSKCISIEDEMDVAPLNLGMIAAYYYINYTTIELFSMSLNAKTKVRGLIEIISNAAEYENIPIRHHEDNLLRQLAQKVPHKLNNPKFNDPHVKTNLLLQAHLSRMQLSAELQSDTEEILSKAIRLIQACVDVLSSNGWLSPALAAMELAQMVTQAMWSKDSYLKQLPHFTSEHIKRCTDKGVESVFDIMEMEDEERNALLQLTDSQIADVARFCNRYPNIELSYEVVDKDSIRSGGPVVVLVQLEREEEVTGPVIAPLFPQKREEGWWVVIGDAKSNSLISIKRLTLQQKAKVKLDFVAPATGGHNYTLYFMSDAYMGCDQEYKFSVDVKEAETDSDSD
# UniProt P70372: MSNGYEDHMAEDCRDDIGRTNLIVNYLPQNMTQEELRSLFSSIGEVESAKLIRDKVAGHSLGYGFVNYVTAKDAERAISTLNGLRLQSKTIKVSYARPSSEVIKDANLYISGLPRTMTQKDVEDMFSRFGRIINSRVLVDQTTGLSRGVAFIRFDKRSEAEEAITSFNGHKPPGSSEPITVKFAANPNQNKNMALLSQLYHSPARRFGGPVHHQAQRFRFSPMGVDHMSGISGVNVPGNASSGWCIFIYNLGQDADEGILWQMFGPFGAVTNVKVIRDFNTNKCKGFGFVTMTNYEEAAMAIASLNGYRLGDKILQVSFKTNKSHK
# Molecular target: hnRNPC (mouse (endogenous in P8 testes)) (UniProt Q9Z204)
# Experiment: affinity purification with mass spectrometry; P8 mouse testis lysate; immunoprecipitation with anti-hnRNPC antibody or IgG on Protein G magnetic beads; SDS-PAGE, in-gel trypsin digestion, LC-MS/MS (Q Exactive), MaxQuant against Mus musculus
row,binding,Substance
1,binds,SRSF10 (from UniProt Q9R0U0 1-262)
2,binds,SNRNP200 (from UniProt Q6P4T2 1-2136)
3,binds,HuR (from UniProt P70372 1-326)

# From article PMC11967818
